Percent effect of library compounds

Amino acid sequences for entries named in this document (tags omitted).
UniProt P9WNZ1, whole entry: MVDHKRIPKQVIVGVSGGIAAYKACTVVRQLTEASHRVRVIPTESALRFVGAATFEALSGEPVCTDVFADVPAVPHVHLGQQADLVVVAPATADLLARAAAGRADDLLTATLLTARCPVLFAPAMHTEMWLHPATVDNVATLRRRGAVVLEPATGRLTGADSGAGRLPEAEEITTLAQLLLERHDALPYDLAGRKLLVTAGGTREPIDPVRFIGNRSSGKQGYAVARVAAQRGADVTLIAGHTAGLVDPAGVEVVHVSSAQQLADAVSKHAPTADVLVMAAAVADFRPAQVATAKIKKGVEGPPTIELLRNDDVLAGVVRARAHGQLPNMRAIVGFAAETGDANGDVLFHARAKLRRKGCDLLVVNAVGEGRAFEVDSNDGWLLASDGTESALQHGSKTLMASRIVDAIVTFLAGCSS

From ChEMBL document CHEMBL3988442, “University of Dundee, Small-Polar-MMV Screening Library” (2021).

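Enzyme assay of CoaBC with a phosphate dye (Biomol Green) read at 650 nm. Target: Coenzyme A biosynthesis protein CoaBC, Mycobacterium tuberculosis (UniProt P9WNZ1). Concentration: 30 µM. Higher reads as stronger inhibition, judged from the few compounds that gave an IC50. Most strong results did not repeat in a second test. Size under these conditions: about 67,000 compounds, about 40 of them at 50% or above in at least one test.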

Values are the deposited “Percent Effect”, in %.
The controls that fix the scale are not given in the record; negative values are as filed.
The compounds are a random part of those screened.

With COCCc1noc(CN2CCCC2c2c(C)nn(C)c2Cl)n1 (centres undefined) the screen gave 1.173%. Result for Cc1cc(N2CCN(C(=O)CCc3scnc3C)CC2)nc(N)n1 was -2.073%. With NC(=O)CCn1nnc(-c2cc3ccccc3o2)n1 the screen gave 14.68%. For CC(=O)N1CCCC1C(=O)NCCOc1c(C)cccc1C (centres undefined) the result was 3.823%. For CN(C)c1ccc(CC2CCCN(c3cnccn3)C2)nn1 (centres undefined) the result was 3.325%.

Cn1nnnc1SCCC(=O)NCC(C)(C)c1ccccc1F read -4.065%. Result for CN1CC(c2ccccc2)CC12CCN(C(=O)c1ccc(F)cc1)CC2 (centres undefined) was -6.579%. Cc1nc(CN2Cc3nccn3CC(CN3CCOCC3)C2)cs1 (centres undefined) read -17.09%. Result for CCCN1CC[C@@H]2OC[C@H](C(=O)Nc3cccnc3)C[C@@H]2C1 was -7.522%. O=C(Cn1ccc2sccc2c1=O)NCCC1=CCCCC1 gave -1.574%.

O=C(NCCCO)C1(N2CCCCC2)Cc2ccccc2C1 read 7.767%. With N#Cc1c(Cl)nsc1NCc1cccnc1OC1CCCC1 the screen gave 2.689%. With CN(C)CCN(C)C(=O)Cc1ccc2c(c1)OCCO2 the screen gave -0.4854%. With COC1CCN(C(=O)Cc2csc(-c3ccccc3)n2)CC1 the screen gave -0.3802%. Result for C[C@@H]1CN(C(=O)Nc2cccc(OC(F)F)c2)CC(C(N)=O)O1 (some centres undefined) was 0.813%.

NC(=O)C1CN(C(=O)Nc2ccccc2OCC(F)(F)F)CCO1 (centres undefined) read 19.74%. With CNC(=O)C(NC(C)=O)c1ccc(F)c(F)c1 (centres undefined) the screen gave 5.159%. COCc1nc(C)cc(Nc2ccc3c(c2)CC(=O)N3)n1 gave 0%. With O=C(NCc1nnc2n1CCCCC2)N(Cc1ccccn1)C1CC1 the screen gave 0%. For Cc1ncsc1-c1ccn(CC(=O)Nc2cnn(C)n2)n1 the result was 1.961%.

For CN(Cc1ccccn1)CC1CCCN1c1cccnn1 (centres undefined) the result was 10.18%. With Cn1cc(C2CC3(CCN(C(=O)c4cccs4)CC3)NC2=O)cn1 (centres undefined) the screen gave -7.368%. For COc1c(Cl)cccc1NCc1csc(NC(C)=O)n1 the result was 0.3891%. CC(C)CN1Cc2c(C(=O)NC3CC3)ncn2-c2ccccc2S1(=O)=O gave 3.046%. CN1CCOC(C(=O)N2CCC3(CCCC3)CC2)C1 (centres undefined) read -2.174%.

CCc1cc(O)nc(C2CCCN2C(=O)c2cc(CC)on2)n1 (centres undefined) gave -1.211%. CCNC(=O)[C@@H]1C[C@@H](NC(=O)c2ccc(C)s2)CN1Cc1ccccn1 gave 0.4959%. With Cc1nc(NCCC23CCCN2CCC3)cc(C2CCNCC2)n1 the screen gave -28.89%. For CCc1nc(CN2CCN(C(=O)c3csc(C(C)C)n3)CC2)no1 the result was -1.229%. CC(NC(=O)NCc1ccc(Cl)s1)c1ccccn1 (centres undefined) gave 1.567%.

With CN(C)c1cncc(C2CCN(CC(N)=O)CC2)n1 the screen gave 1.716%. For Cc1cc(F)ccc1OC1(C(=O)O)CCN(Cc2c[nH]cn2)CC1 the result was 5.011%. Cc1cnn(CC2CN(CCc3cccs3)CCO2)c1 (centres undefined) gave 0.5222%. With Cc1nc2ccccc2n1Cc1cc(C(=O)N(C)C2CCOCC2)no1 the screen gave -2.41%. CC(=O)N(Cc1noc(C)n1)C1CCN(CCOc2ccccc2)C1 (centres undefined) read 2.635%.

O=C1N(CC2CC2)CCC12CCCN(c1ncc(F)cn1)C2 (centres undefined) read 1.463%. For CC(C)c1nnc(NCc2cc3n(n2)CCNC3)s1 the result was 5.221%. With Cc1ccn(CC(=O)N2CC[C@@H](c3ccc4ccccc4c3)[C@H](O)C2)n1 the screen gave 4.575%. CNc1nc(CNC(=O)Nc2ccc(OC(C)C)cc2F)cs1 gave -3.719%. O=C(NCCn1ccnc1)N1CCCC1c1cccs1 (centres undefined) read -2.895%.

For c1cnc(N2C[C@H]3CCN(CC4CC4)C[C@H]3C2)cn1 the result was 2.847%. CN(C)CCNC(=O)[C@H]1C[C@H]2CN(c3ncccn3)C[C@H]2N1C read -1.426%. Result for CN(CCn1cnnc1)C(=O)c1ccnc(OC2CCC2)c1 was -4.487%.

Repeated from the top, 4 entries:

| Compound | percent effect |
|---|---|
| `COCCc1noc(CN2CCCC2c2c(C)nn(C)c2Cl)n1` (centres undefined) | 1.173 |
| `Cc1cc(N2CCN(C(=O)CCc3scnc3C)CC2)nc(N)n1` | -2.073 |
| `NC(=O)CCn1nnc(-c2cc3ccccc3o2)n1` | 14.68 |
| `CC(=O)N1CCCC1C(=O)NCCOc1c(C)cccc1C` (centres undefined) | 3.823 |